Measured values from publication PMC6469404.
Results are given in words; binding and its absence hold for the method and conditions named. In cells and extracts the contact can be indirect. Some results given as binding are weak or reduced against the parent protein; the word gives no strength. Where a sequence is shown, tags or fusion partners need not be part of it.

Sequences of proteins named here, by UniProt entry; tags and fusion partners are left off.
UniProt P39926: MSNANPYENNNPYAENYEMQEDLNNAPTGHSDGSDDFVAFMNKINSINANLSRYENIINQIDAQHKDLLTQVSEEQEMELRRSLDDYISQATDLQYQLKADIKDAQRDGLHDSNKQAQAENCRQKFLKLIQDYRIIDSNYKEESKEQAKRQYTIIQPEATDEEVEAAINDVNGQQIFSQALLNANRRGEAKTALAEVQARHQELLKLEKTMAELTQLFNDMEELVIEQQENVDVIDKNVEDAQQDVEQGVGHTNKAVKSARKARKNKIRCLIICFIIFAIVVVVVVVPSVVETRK
UniProt P02994: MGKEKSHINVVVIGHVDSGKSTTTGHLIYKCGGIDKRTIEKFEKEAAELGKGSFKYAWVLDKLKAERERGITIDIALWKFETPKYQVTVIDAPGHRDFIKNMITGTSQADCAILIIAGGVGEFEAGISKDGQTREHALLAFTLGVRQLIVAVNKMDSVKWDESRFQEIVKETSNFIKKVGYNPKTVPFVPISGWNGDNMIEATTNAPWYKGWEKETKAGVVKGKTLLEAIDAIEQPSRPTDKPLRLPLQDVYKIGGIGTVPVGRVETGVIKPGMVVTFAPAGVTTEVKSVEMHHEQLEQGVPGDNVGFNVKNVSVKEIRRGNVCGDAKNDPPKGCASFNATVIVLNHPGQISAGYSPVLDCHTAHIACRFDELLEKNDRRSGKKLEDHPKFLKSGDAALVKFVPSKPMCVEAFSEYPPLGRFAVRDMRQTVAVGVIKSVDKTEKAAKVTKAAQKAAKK
UniProt Q01590: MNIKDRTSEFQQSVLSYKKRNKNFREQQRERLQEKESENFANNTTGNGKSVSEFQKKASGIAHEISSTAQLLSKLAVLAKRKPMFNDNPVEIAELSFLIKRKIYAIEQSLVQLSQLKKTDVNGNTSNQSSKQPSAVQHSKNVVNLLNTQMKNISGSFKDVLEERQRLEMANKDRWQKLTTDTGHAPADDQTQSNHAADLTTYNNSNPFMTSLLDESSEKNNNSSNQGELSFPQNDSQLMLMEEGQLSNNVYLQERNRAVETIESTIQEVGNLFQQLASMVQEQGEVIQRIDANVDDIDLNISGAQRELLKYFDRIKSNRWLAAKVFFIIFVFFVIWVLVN

Key:
Assay in all cases: pull-down; calmodulin affinity purification coupled to western blot (AP-WB): TAP-tagged interactor as bait on calmodulin sepharose beads, galactose-induced Wsc1-HA as prey, yeast lysate in CaM-IPLB with 1% Triton X-100, 2 hr at 4°
[1] = target: T1, Egd2p, TAP-tagged bait (S. cerevisiae) (UniProt P38879)
T1 sequence: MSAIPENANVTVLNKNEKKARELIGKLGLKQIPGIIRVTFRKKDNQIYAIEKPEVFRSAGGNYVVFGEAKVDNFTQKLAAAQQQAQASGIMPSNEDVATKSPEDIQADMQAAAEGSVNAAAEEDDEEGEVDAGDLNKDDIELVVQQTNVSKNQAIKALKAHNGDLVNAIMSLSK

[2] = target: T2, Zeo1p, TAP-tagged bait (S. cerevisiae) (UniProt Q08245)
T2 sequence: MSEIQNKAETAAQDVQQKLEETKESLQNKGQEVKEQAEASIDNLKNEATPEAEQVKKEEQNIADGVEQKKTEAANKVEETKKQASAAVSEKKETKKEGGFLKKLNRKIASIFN

[3] = target: T3, Mek1p, TAP-tagged bait (S. cerevisiae) (UniProt P24719)
T3 sequence: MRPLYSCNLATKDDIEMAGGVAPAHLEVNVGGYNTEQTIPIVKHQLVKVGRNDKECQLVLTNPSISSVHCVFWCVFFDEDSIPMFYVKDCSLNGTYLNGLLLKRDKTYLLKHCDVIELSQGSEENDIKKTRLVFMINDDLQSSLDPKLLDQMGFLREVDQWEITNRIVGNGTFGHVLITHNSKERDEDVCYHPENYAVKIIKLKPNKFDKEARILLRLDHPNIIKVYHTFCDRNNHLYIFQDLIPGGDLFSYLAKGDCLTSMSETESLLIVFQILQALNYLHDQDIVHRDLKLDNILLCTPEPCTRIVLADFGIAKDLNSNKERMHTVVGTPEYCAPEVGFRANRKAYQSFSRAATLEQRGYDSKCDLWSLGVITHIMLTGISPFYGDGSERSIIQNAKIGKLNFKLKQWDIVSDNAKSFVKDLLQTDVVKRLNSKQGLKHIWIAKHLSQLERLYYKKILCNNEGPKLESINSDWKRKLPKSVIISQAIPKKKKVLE

[4] = target: Sso2p, TAP-tagged bait (S. cerevisiae) (UniProt P39926)
[5] = target: Tef1p, TAP-tagged bait (S. cerevisiae) (UniProt P02994)
[6] = target: Sed5-TAP (S. cerevisiae) (UniProt Q01590)
[7] = target: T4, Ypl238cp, TAP-tagged bait (S. cerevisiae) (UniProt Q99401)
T4 sequence: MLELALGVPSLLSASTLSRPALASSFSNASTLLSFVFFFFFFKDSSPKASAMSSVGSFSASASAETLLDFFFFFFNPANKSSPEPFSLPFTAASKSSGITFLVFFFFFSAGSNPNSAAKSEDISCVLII

B1: Wsc1-HA (protein, UniProt P54867 22-378)
chain: YEYVNCFSSLPSDFSKADSYNWQSSSHCNSECSAKGASYFALYNHSECYCGDTNPSGSESTSSSCNTYCFGYSSEMCGGEDAYSVYQLDSDTNSNSISSSDSSTESTSASSSTTSSTTSSTTSTTSSTTSSTTSSMASSSTVQNSPESTQAAASISTSQSSSTVTSESSLTSDTLATSSTSSQSQDATSIIYSTTFHTEGGSTIFVTNTITASAQNSGSATGTAGSDSTSGSKTHKKKANVGAIVGGVVGGVVGAVAIALCILLIVRHINMKREQDRMEKEYQEAIKPVEYPDKLYASSFSSNHGPSSGSFEEEHTKGQTDINPFDDSRRISNGTFINGGPGGKNNVLTVVNPDEAD
- binding [1]: binds
- binding [2]: binds
- binding [3]: binds
- binding [4]: binds
- binding [5]: binds
- binding [6]: no binding
- binding [7]: binds
